Source: patent US20170290876A1
Results are given in words; binding and its absence hold for the method and conditions named. Some binding calls cover weakened binding; strength is not graded here.

Protein sequences, listed by entry. Tags and fused reporters are not part of them. Lines headed by an entry give the natural chain unless they say otherwise; changes in a name come on top.
UniProt P15692: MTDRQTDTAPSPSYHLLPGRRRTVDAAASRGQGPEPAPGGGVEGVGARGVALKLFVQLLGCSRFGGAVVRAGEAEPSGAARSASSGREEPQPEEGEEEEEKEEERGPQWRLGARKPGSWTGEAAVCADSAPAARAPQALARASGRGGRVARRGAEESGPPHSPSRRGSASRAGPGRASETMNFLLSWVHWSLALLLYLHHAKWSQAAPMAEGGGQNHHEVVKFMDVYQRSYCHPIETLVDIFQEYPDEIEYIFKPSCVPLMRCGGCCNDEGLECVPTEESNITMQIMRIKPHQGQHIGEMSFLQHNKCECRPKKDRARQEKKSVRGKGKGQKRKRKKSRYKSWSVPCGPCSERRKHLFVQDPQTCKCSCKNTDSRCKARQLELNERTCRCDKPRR

Biological target: human VEGF (human) (UniProt P15692)
Assay: Biacore SPR

Binder	binding
HC4 (Fab, V domains shown) VH: EVQLVESGGGLVQPGGSLRLSCTASGFSLTNYYYMTWVRQAPGKGLEWVGFIDPQNDPYYATWAKGRFTISRDNSKNTLYLQMNSLRAEDTAVYYCAGGNHNSGWGLNIWGQGTLVTVSS VL: EIVMTQSPSTLSASVGDRVIITCQASEIIHSWLAWYQQKPGKAPKLLIYLASTLASGVPSRFSGSGSGAEFTLTISSLQPDDFATYYCQNVYLASTNGANFGQGTKLTVLK	binds
HC4T (Fab, V domains shown) VH: EVQLVESGGGLVQPGGSLRLSCTASGFSLTNYYYMTWVRQAPGKGLEWVGFIDPQNDPYYATWAKGRFTISRDNSKNTLYLQMNSLRAEDTAVYYCAGGNHNSGWGLNIWGQGTLVTVSS VL: EIVMTQSPSTLSASVGDRVIITCQASEIIHSWLAWYQQKPGKAPKLLIYLASTLASGVPSRFSGSGSGAEFTLTISSLQPDDFATYYCQNVYLASTNGANFGQGTKLTVLK	binds
